Measured values reported in publication PMC12297659, “In situ structure of the mouse sperm central apparatus reveals mechanistic insights into asthenozoospermia” (Cell Research, 2025).
Results are given in words; binding and its absence hold for the method and conditions named. A result given as binding can be weak or reduced; the word gives no strength.

What was measured:
Assay in all cases: cryo-EM structure; in situ cryo-electron tomography with subtomogram averaging of about 200 nm cryo-FIB lamellae of wild-type mouse sperm; local maps of 5.5 Å to 18 Å; AlphaFold2 models fitted into the density
[1] = biological target: T1, ANKMY1 (mouse (endogenous in sperm)) (UniProt Q8C0W1)
T1 sequence: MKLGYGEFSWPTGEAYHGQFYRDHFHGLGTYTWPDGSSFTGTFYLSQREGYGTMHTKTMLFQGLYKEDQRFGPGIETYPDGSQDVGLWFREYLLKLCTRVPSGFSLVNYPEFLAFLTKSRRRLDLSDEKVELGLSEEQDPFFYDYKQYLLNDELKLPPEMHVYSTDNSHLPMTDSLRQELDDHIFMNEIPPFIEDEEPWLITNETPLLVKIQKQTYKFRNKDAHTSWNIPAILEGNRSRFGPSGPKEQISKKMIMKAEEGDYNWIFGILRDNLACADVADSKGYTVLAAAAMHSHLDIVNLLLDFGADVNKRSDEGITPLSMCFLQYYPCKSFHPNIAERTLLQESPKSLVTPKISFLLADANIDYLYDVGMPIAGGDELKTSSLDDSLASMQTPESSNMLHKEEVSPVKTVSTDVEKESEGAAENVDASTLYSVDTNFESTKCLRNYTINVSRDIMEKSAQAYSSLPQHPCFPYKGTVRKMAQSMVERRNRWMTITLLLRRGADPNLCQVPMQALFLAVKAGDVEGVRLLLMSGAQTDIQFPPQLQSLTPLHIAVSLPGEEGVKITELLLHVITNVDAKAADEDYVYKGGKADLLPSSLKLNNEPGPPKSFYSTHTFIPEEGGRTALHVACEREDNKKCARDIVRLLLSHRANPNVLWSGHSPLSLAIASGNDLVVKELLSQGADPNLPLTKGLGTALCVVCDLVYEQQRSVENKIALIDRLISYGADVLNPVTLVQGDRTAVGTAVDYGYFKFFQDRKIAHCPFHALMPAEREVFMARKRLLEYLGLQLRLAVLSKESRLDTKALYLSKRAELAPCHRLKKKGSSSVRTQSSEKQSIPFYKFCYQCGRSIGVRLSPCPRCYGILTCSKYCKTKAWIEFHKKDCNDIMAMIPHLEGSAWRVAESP

[2] = biological target: T2, SPAG6 (mouse (endogenous in sperm)) (UniProt Q9JLI7)
T2 sequence: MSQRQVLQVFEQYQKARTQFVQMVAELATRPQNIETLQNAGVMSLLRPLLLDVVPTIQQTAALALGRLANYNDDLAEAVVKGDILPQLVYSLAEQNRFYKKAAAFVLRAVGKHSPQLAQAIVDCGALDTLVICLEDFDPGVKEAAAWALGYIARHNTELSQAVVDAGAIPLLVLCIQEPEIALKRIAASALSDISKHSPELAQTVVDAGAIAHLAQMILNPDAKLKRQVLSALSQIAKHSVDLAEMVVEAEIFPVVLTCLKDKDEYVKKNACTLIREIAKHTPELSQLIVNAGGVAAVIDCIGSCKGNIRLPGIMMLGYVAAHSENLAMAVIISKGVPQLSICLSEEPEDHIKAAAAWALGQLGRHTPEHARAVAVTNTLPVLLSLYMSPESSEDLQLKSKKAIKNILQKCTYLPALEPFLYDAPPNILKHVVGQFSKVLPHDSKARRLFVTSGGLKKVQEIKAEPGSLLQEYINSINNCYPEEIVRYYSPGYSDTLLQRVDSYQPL

[3] = biological target: T3, LRRC43 (mouse (endogenous in sperm)) (UniProt Q3V0L5)
T3 sequence: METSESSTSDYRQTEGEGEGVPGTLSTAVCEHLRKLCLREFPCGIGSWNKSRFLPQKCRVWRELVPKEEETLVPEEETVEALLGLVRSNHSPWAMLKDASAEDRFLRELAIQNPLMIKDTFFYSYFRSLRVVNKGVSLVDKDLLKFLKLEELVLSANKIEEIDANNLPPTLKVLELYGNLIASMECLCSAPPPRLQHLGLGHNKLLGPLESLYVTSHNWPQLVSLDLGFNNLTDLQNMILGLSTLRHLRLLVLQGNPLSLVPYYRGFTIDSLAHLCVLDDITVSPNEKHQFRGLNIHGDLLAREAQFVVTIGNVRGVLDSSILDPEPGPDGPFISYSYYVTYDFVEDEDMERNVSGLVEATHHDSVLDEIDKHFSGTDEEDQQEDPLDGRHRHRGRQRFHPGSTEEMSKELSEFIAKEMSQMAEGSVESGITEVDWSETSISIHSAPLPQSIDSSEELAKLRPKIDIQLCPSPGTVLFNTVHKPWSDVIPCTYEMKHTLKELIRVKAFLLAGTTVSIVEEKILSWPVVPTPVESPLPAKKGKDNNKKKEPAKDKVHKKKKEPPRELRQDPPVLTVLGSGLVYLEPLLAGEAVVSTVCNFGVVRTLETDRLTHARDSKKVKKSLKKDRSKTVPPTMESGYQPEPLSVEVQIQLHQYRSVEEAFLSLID

binding [1]	binding [2]	binding [3]	Substance
binds	–	–	CCDC180 (mouse (endogenous in sperm))
–	binds	binds	CFAP46 (mouse (endogenous in sperm))
–	binds	–	DLEC1 (mouse (endogenous in sperm))
